Reference: PubChem BioAssay AID1259308 (NCATS, 2017)

Screen: 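Knock-downs that increase output of a recombinant reporter protein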 (primary screen)
System: human HEK293 embryonic kidney cells stably expressing firefly luciferase (HEK-CMV-Luc2-Hygro)
Reagent: single siRNA against human genes, 0.8 pmol siRNA per well
Time to read-out: 72 h
Measured: 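Luciferase light (ONE-Glo) measured on one replicate plate set and viability (CellTiter-Glo) on the other, scaled to a negative control siRNA, with robust z-scores and luciferase per cell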
Reading the numbers: total luciferase, z-score and total luciferase, % of control: higher = more reporter protein produced; luciferase per cell, z-score: higher = more reporter output per viable cell; viable cells, % of control: higher = more viable cells
Hit rule: 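Active when the median/MAD z-score for overall luciferase is greater than 3; a gene was taken forward for validation with new siRNAs if at least two of its three siRNAs passed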
Meaning of the calls: active = raised luciferase; inactive = no rise
In all, the deposit lists about 59,000 reagents; below is a random part of them. About 1,510 of them (2.6%) count as active. 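Calls use total luciferase alone and ignore viability, so some active siRNAs may act by altering cell number.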 Entries without a mark were called inactive. The numbers tell different reagents against one gene apart.

no.	target gene	siRNA no.	total luciferase, z-score	total luciferase, % of control	luciferase per cell, z-score	viable cells, % of control
1	KMT2A	1	-1.6	50.2	-1.66	86.8
2	KMT2A	2	-0.723	67.5	-0.953	96.9
3	KMT2A	3	0.497	91.8	0.781	83.5
4	GPD2	1	-0.0393	81.1	-0.304	98.2
5	GPD2	2	1.16	105	0.503	103
6	GPD2	3	0.938	101	0.457	99.6
7	IFT46	1	-0.423	73.5	-0.723	99.3
8	IFT46	2	-1.79	46.3	-2.2	92.3
9	IFT46	3	-0.928	63.4	-1.16	96.2
10	GAS8-AS1	1	0.434	90.5	2.03	59.2
11	GAS8-AS1	2	0.482	91.5	0.616	86.9
12	GAS8-AS1	3	-0.13	79.3	0.445	78.8
13	METTL22	1	-0.184	78.2	-0.0727	89.1
14	METTL22	2	-0.102	79.9	-0.571	104
15	METTL22	3	0.15	84.9	0.0651	93.2
16	PON3	1	-0.889	64.2	-0.364	79
17	PON3	2	-1.35	55	-1.33	87.1
18	PON3	3	1.21	106	1.37	82.6
19	TEP1	1	-0.345	75	-0.814	104
20	TEP1	2	-1.17	58.6	-1.14	88.5
21	TEP1	3	-1.57	50.6	-1.69	88.2
22	PEX11B	1	-0.15	78.9	0.0995	85.9
23	PEX11B	2	0.88	99.4	0.358	101
24	PEX11B	3	0.0511	82.9	-0.463	105
25	SASH3	1	0.161	85.1	-0.167	99.3
26	SASH3	2	-0.759	66.8	0.697	62.1
27	SASH3	3	-1.74	47.2	-1.75	83.6
28	SMPX	1	0.866	99.1	0.0863	108
29	SMPX	2	0.319	88.2	-0.086	101
30	SMPX	3	0.992	102	0.154	109
31	PLCG1	1	-0.155	78.8	-0.174	92.2
32	PLCG1	2	-0.675	68.5	-0.865	96.1
33	PLCG1	3	-0.116	79.6	-0.33	97
34	MLKL	1	-0.315	75.6	0.578	72.6
35	MLKL	2	0.499	91.8	1.01	78.6
36	MLKL	3	-0.322	75.5	-0.208	89.1
37	MKNK2	1	1.13	104	0.884	92.5
38	MKNK2	2	3.62 (active)	154	2.37	92.1
39	MKNK2	3	0.051	82.9	-0.201	97.7

Next part, starting with the last 6 of the part before.
no.	target gene	siRNA no.	total luciferase, z-score	total luciferase, % of control	luciferase per cell, z-score	viable cells, % of control
34	MLKL	1	-0.315	75.6	0.578	72.6
35	MLKL	2	0.499	91.8	1.01	78.6
36	MLKL	3	-0.322	75.5	-0.208	89.1
37	MKNK2	1	1.13	104	0.884	92.5
38	MKNK2	2	3.62 (active)	154	2.37	92.1
39	MKNK2	3	0.051	82.9	-0.201	97.7
40	GRIK3	1	-0.333	75.3	-0.622	99.1
41	GRIK3	2	0.165	85.2	-0.107	97.9
42	GRIK3	3	-0.371	74.5	-0.511	95.2
43	OAS3	1	2.31	128	2.07	82.8
44	OAS3	2	2.3	128	2.06	82.9
45	OAS3	3	-0.82	65.6	-0.848	91.6
46	PDE3A	1	3.05 (active)	143	4.2	52.7
47	PDE3A	2	0.22	86.3	-0.364	106
48	PDE3A	3	-0.447	73	-0.652	96.8
49	NSUN4	1	-0.16	78.7	0.00379	87.8
50	NSUN4	2	0.418	90.2	0.168	96.4
51	NSUN4	3	0.138	84.6	-0.281	102
52	SLC46A3	1	-1.02	61.5	-0.612	80.8
53	SLC46A3	2	0.536	92.6	-0.0955	106
54	SLC46A3	3	-1.53	51.4	-1.28	80.5
55	ABL1	1	-1.58	50.4	-1.22	77.6
56	ABL1	2	-0.824	65.5	0.302	67.6
57	ABL1	3	-0.668	68.6	-0.807	94.8
58	LARP4B	1	-2.27	36.8	-1.83	66.6
59	LARP4B	2	-0.766	66.7	-0.803	92
60	LARP4B	3	0.394	89.7	0.954	78
61	SDF4	1	0.383	89.5	1.53	66.9
62	SDF4	2	0.204	85.9	0.407	86.3
63	SDF4	3	1.28	107	1.1	89.8
64	NCAM1	1	-0.148	79	-0.511	101
65	NCAM1	2	-0.819	65.6	-0.564	85
66	NCAM1	3	1.1	104	0.987	89.5
67	RAET1E	1	1.25	107	0.782	97.1
68	RAET1E	2	-1.88	44.5	-2.33	91.7
69	RAET1E	3	-0.247	77	-0.321	93.6
70	PPP2R1B	1	0.121	84.3	-0.297	102
71	PPP2R1B	2	0.44	90.6	-0.282	109
72	PPP2R1B	3	-1.31	55.8	-0.224	66.1
73	ASPNAT	1	-0.492	72.1	-0.00959	80.8
74	ASPNAT	2	-0.0796	80.3	-0.148	93.3
75	ASPNAT	3	0.234	86.5	-0.156	101
